The list shows a part of the results.
Key:
Test in all cases: log2 fold change, soluble protein after heating vs DMSO (PISA); higher = thermal stabilisation; K562 lysate, 10 uM; active = over 0.2 and 3.5 SD of the protein, either way, in both replicates (recomputed)
[1] = compound: C1=CC=C(C=C1)[C@H](COC2=CC3=C(C=C2)NC(=O)N3)NC(=O)C4=CC=CN(C4=O)CC5=CC(=C(C=C5)F)F
How it was run: (§1)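 Dounce homogenisation of K562 pellets in PBS pH 7.4 with 1 mM MgCl2 produced a crude extract, used at 1 mg/mL protein. Exposure to 10 μM compound lasted 30 min, and aliquots were then heated for 3 min across 48°C-58°C, pooled and brought to 0.5% NP-40 at 4°C. The supernatant after 21,000xg for 90 min was quantified by TMTpro 16plex LC-MS/MS with channel sums equalised. Duplicate values are given as log-two fold change in thermal stability relative to solvent controls.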

Sequences of proteins named here, by UniProt entry; tags and fusion partners are left off. A change or cut given only in a name is not applied to a line headed by its entry.
UniProt Q9BQ69: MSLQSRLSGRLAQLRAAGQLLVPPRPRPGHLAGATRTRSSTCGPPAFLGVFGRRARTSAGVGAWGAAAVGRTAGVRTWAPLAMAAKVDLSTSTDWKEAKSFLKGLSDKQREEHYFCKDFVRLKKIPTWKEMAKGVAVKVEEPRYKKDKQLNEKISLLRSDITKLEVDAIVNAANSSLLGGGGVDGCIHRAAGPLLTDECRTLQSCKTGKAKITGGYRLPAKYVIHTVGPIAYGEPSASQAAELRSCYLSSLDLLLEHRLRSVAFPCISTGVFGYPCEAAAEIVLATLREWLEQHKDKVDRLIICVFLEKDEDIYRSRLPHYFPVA
UniProt Q8WWC4: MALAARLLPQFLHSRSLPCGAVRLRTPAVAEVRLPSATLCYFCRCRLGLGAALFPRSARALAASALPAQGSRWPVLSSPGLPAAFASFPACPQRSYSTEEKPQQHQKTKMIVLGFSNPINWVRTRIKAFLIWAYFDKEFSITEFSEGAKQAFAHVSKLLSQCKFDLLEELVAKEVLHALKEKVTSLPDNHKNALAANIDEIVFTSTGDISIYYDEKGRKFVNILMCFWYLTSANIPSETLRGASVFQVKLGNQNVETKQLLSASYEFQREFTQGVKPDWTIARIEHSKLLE
UniProt Q86V48: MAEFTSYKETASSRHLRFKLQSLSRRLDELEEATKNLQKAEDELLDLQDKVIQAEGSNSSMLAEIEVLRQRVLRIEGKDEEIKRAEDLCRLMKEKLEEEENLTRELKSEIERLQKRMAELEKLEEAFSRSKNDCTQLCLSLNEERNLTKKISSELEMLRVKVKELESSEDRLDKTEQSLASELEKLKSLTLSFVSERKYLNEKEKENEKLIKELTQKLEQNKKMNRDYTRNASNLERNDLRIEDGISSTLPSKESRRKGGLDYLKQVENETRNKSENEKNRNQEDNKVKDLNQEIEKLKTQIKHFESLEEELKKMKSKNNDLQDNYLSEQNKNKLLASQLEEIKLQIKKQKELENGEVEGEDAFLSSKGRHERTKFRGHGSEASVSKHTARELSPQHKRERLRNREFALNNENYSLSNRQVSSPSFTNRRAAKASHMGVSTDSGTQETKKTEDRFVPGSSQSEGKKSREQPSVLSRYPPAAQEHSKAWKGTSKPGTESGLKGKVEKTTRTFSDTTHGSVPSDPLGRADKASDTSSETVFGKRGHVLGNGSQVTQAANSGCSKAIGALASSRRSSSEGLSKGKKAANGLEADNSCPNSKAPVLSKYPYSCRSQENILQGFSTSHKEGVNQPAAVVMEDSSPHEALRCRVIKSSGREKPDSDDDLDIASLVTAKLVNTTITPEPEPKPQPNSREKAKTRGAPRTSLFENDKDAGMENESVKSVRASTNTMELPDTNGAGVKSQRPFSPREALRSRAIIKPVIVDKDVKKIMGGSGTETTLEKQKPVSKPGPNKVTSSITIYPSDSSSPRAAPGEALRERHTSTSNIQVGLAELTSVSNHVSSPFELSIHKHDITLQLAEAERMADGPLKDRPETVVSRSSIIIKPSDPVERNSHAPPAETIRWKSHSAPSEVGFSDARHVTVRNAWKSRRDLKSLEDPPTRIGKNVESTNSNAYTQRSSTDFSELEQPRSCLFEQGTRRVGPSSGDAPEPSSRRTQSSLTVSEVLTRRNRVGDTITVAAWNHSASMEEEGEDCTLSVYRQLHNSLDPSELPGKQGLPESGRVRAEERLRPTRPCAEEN
UniProt P49137, whole entry, looked up: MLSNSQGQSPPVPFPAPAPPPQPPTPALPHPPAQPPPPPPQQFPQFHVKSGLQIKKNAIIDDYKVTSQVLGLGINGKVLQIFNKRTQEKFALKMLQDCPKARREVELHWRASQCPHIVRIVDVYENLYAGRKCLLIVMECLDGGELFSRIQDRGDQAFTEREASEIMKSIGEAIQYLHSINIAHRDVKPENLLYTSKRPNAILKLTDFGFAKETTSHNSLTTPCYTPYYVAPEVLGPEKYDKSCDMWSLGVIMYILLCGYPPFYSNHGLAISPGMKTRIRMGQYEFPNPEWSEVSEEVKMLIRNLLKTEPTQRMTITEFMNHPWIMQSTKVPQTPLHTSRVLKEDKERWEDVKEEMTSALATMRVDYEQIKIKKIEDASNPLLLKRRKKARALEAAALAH
UniProt Q9P0L2: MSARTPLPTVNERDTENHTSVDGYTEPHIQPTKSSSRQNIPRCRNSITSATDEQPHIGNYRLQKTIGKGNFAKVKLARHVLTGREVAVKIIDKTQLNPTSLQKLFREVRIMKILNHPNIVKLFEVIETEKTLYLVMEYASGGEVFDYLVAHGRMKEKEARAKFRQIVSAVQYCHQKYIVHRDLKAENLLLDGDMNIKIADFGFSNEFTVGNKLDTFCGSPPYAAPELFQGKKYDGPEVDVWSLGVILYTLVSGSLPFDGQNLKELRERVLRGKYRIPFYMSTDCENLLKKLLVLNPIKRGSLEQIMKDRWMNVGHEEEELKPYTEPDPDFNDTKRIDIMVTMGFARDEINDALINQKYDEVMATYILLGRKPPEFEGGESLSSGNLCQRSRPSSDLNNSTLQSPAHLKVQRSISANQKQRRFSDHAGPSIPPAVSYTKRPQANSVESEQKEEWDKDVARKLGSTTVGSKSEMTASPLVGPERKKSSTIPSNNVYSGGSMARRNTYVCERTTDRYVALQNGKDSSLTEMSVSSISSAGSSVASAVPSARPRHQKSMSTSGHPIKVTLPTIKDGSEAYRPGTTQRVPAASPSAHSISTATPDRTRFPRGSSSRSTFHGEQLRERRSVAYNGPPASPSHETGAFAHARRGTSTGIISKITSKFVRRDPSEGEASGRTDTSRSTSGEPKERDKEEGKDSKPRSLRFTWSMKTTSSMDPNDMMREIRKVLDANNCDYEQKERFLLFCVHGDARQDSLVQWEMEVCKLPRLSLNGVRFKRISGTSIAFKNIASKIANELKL
UniProt Q96S90: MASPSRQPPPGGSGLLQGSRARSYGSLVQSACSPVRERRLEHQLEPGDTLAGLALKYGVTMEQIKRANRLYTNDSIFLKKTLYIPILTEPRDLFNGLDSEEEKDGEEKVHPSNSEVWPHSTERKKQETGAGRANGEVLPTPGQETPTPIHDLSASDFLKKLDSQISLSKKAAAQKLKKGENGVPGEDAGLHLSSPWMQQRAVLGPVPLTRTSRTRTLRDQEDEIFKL
UniProt Q9Y5V3: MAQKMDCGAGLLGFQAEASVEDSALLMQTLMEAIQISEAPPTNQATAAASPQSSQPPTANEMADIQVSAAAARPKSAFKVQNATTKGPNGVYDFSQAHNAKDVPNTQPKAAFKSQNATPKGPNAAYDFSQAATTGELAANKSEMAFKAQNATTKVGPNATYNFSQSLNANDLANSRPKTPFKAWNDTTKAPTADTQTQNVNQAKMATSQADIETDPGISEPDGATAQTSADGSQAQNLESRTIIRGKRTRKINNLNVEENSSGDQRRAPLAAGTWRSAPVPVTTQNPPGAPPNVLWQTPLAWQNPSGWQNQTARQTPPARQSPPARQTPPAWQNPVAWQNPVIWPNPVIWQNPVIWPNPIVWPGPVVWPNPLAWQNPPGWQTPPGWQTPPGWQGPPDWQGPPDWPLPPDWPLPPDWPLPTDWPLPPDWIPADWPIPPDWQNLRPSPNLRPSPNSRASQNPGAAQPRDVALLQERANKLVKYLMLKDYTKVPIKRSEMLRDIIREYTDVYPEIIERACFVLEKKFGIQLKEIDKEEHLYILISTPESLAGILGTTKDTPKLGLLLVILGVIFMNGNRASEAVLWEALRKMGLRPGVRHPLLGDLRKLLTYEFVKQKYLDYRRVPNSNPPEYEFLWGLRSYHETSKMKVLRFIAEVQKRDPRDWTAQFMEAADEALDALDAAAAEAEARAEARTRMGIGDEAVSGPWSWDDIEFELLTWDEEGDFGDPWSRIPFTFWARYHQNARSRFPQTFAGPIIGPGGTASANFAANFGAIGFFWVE
UniProt Q96GW9: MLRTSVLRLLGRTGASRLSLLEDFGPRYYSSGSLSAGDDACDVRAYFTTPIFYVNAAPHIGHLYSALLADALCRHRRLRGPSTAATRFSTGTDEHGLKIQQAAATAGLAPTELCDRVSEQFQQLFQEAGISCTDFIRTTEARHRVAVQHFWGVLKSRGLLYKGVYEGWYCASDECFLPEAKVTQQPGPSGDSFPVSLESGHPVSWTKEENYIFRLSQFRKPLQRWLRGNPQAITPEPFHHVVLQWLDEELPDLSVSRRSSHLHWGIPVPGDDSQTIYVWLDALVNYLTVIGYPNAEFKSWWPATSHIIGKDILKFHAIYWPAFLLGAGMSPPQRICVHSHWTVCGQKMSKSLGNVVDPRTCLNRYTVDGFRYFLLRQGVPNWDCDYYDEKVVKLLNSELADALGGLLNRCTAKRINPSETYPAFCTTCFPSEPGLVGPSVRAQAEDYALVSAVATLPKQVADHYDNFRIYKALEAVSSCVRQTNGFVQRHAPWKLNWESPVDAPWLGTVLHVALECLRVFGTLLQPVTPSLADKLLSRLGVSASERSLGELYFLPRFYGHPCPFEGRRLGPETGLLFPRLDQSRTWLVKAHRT
UniProt Q92585: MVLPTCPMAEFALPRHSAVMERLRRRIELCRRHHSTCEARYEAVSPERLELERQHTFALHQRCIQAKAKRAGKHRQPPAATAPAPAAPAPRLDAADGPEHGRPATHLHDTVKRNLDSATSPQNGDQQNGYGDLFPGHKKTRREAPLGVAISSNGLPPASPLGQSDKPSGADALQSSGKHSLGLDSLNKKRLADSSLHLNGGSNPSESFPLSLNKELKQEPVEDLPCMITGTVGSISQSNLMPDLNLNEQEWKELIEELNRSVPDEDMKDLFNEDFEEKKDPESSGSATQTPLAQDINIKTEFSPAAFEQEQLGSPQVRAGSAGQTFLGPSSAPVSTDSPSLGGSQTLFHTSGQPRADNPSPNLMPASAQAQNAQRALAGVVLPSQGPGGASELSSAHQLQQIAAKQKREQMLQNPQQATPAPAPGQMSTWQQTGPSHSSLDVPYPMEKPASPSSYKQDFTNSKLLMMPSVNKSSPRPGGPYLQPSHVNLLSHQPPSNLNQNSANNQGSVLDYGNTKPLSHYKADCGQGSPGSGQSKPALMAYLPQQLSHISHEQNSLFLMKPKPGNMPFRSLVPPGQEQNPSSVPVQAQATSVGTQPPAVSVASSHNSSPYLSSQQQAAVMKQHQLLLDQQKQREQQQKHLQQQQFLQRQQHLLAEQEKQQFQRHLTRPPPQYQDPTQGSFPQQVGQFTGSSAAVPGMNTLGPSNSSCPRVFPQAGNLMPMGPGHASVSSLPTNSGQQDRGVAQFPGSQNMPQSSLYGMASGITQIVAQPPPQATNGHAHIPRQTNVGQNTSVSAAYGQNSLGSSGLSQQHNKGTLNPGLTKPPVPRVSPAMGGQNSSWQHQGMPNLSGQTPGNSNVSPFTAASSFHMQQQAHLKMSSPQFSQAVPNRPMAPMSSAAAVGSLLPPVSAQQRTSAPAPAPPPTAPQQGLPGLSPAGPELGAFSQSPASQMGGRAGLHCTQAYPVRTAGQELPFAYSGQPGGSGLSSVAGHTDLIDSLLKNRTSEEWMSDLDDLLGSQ
UniProt Q66K74: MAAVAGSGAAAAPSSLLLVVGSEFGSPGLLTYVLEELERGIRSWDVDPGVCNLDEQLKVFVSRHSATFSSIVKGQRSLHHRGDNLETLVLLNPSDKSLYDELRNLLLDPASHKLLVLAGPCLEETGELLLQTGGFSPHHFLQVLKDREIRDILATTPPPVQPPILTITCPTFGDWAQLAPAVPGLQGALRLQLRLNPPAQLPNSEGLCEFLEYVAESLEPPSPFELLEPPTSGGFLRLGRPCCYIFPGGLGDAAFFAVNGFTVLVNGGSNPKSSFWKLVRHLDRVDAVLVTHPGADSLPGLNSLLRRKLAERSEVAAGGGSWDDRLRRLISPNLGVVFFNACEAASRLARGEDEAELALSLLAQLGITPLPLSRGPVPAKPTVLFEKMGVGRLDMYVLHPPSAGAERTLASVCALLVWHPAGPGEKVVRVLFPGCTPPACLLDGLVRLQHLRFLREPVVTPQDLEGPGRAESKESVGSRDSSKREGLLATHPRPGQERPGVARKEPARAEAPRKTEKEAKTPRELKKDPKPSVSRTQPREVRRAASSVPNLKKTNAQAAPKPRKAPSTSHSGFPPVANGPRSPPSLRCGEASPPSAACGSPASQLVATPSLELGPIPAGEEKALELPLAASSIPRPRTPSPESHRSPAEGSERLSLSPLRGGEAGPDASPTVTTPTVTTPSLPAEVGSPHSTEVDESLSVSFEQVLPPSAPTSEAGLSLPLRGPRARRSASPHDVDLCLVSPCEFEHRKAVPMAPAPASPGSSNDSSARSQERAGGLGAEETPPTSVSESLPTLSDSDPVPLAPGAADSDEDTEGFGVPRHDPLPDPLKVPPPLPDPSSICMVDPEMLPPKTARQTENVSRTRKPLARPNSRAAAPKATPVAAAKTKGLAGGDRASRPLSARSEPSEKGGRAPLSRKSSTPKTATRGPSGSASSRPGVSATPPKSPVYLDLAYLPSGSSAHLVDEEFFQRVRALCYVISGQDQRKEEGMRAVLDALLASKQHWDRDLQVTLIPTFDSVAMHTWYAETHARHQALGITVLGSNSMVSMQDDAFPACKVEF

[2] = compound: CC1=C(SC2=C1C(=N[C@H](C3=NN=C(N32)C)CC(=O)N)C4=CC=C(C=C4)Cl)C
How it was run: as §1

[3] = compound: CC1=C2C(=CC=C1)N=C(N(C2=O)C3=CC=CC=C3C)CN4C=NC5=C(N=CN=C54)N
How it was run: as §1

[4] = compound: Cc1sc2c(c1C)C(c1ccc(Cl)cc1)=N[C@@H](CC(=O)OC(C)(C)C)c1nnc(C)n1-2
How it was run: as §1

[5] = compound: c1ccc([C@@H]2C[C@H]2NC2CCNCC2)cc1
How it was run: as §1

Measured: log2 fold change

MAD2L1BP isoform 3 (UniProt Q15013)
inactive: [1] 0.003 | [2] 0.005 | [3] -0.013 | [4] -0.01 | [5] -0.006

MADD isoform 4 (UniProt Q8WXG6)
inactive: [1] -0.005 | [2] 0.009 | [3] 0.039 | [4] -0.016 | [5] 0.006

LTV1 (UniProt Q96GA3)
inactive: [1] 0.03 | [2] 0.003 | [3] 0.021 | [4] 0.052 | [5] 0.038

MANEA (UniProt Q5SRI9)
inactive: [1] 0.146 | [2] -0.009 | [3] 0.044 | [4] 0.029 | [5] -0.161

MAP3K2 (UniProt Q9Y2U5)
inactive: [1] 0.034 | [2] -0.006 | [3] 0.126 | [4] -0.098 | [5] 0.042

MAGEA9 (UniProt P43362)
inactive: [1] -0.008 | [2] 0.07 | [3] 0.015 | [4] -0.021 | [5] 0.015

MAP4 (UniProt P27816)
inactive: [1] 0.027 | [2] 0.012 | [3] -0.012 | [4] -0.027 | [5] -0.043

MAPK3 (UniProt P27361)
inactive: [1] 0.008 | [2] 0.006 | [3] -0.05 | [4] 0.036 | [5] -0.048

MANF (UniProt P55145)
inactive: [1] 0.01 | [2] -0.027 | [3] -0.022 | [4] 0.003 | [5] 0.001

MARCHF6 (UniProt O60337)
inactive: [1] -0.269 | [2] -0.192 | [3] -0.107 | [4] -0.082 | [5] 0.029

LUC7L2 (UniProt Q9Y383)
inactive: [1] 0.017 | [2] 0.001 | [3] 0.012 | [4] 0.027 | [5] 0.068

MACROD1 (UniProt Q9BQ69)
inactive: [1] 0.048 | [2] 0.022 | [3] 0.004 | [4] 0.049 | [5] 0.075

MAN1B1 (UniProt Q9UKM7)
inactive: [1] 0.062 | [2] -0.023 | [3] 0.044 | [4] 0.003 | [5] 0.01

MAPK14 isoform 2 (UniProt Q16539)
inactive: [1] 0.008 | [2] -0.053 | [3] 0.014 | [4] -0.028 | [5] 0.154

MACF1 (UniProt H3BQK9)
inactive: [1] -0.029 | [2] -0.004 | [3] 0.025 | [4] -0.02 | [5] 0.013

MAIP1 (UniProt Q8WWC4)
inactive: [1] -0.077 | [2] 0.032 | [3] -0.019 | [4] -0.019 | [5] -0.005

MAP1LC3B2 (UniProt A6NCE7)
inactive: [1] -0.051 | [2] 0.007 | [3] -0.001 | [4] 0.048 | [5] -0.019

MAP7 (UniProt Q14244)
inactive: [1] 0.056 | [2] -0.082 | [3] 0.061 | [4] 0.06 | [5] -0.022

MAEA (UniProt Q7L5Y9)
inactive: [1] -0.044 | [2] 0.056 | [3] 0.022 | [4] 0.022 | [5] 0.038

LTBP4 (UniProt Q8N2S1)
inactive: [1] 0.086 | [2] 0.117 | [4] 0.043 | [5] -0.028

LYSMD2 (UniProt Q8IV50)
inactive: [1] 0.067 | [2] -0.025 | [3] -0.077 | [4] 0.003 | [5] -0.035

LYPLA1 (UniProt O75608)
inactive: [1] -0.081 | [2] -0.04 | [3] 0.027 | [4] 0.04 | [5] 0.009

MAFG (UniProt O15525)
inactive: [1] 0.039 | [2] 0.07 | [4] 0 | [5] -0.014

MAPRE1 (UniProt Q15691)
inactive: [1] -0.016 | [2] -0.023 | [3] -0.034 | [4] 0.02 | [5] 0.06

LUZP1 (UniProt Q86V48)
inactive: [1] 0.039 | [2] -0.113 | [3] 0.032 | [4] 0.007 | [5] -0.056

MAPKAPK2 (UniProt P49137)
inactive: [1] 0.043 | [2] 0.008 | [3] -0.053 | [4] 0.004 | [5] -0.051

MAN2B1 (UniProt O00754)
inactive: [1] 0.006 | [2] 0.013 | [3] 0.012 | [4] -0.013 | [5] 0.035

Quoted from the listing (3 entries):
MAP7 (UniProt Q14244)
inactive: [1] 0.056 | [2] -0.082 | [3] 0.061 | [4] 0.06 | [5] -0.022

MAEA (UniProt Q7L5Y9)
inactive: [1] -0.044 | [2] 0.056 | [3] 0.022 | [4] 0.022 | [5] 0.038

LTBP4 (UniProt Q8N2S1)
inactive: [1] 0.086 | [2] 0.117 | [4] 0.043 | [5] -0.028

(listing goes on)

MANBA (UniProt O00462)
inactive: [1] -0.004 | [2] 0.007 | [3] 0.049 | [4] -0.088 | [5] -0.02

MARK1 (UniProt Q9P0L2)
inactive: [1] -0.034 | [2] 0.036 | [3] 0.019 | [4] -0.006 | [5] 0.116

LYSMD1 (UniProt Q96S90)
inactive: [1] 0.029 | [2] 0.019 | [3] 0.048 | [4] -0.006 | [5] -0.031

MAP4K4 isoform 6 (UniProt O95819)
inactive: [1] 0.076 | [2] 0.063 | [4] -0.163

LYSMD3 (UniProt Q7Z3D4)
inactive: [1] 0.031 | [2] 0.063 | [3] 0.062 | [4] -0.096 | [5] -0.084

MAGED1 isoform 2 (UniProt Q9Y5V3)
inactive: [1] -0.072 | [2] 0.081 | [3] 0.084 | [5] -0.069

LY6E (UniProt Q16553)
inactive: [1] -0.031 | [2] -0.046 | [3] -0.075 | [5] -0.815

MARS2 (UniProt Q96GW9)
inactive: [1] 0.016 | [2] 0.04 | [3] -0.025 | [4] 0.006 | [5] -0.006

MAP4 (UniProt E7EVA0)
inactive: [1] -0.024 | [2] -0.002 | [3] 0.037 | [4] -0.018 | [5] -0.041

MACC1 (UniProt Q6ZN28)
inactive: [1] -0.009 | [2] 0.004 | [3] 0.016 | [4] -0.125 | [5] -0.088

MAP2K1 (UniProt Q02750)
inactive: [1] -0.012 | [2] 0.016 | [3] -0.047 | [4] -0.048 | [5] 0.081

MAML2 (UniProt Q8IZL2)
inactive: [1] -0.045 | [2] -0.101 | [3] 0.012 | [4] -0.111 | [5] -0.071

MAML1 (UniProt Q92585)
inactive: [1] 0.029 | [2] 0.127 | [3] -0.057 | [4] -0.145 | [5] -0.011

MAGEC2 (UniProt Q9UBF1)
inactive: [1] -0.006 | [2] -0.021 | [3] -0.03 | [4] -0.025 | [5] -0.052

MAP1S (UniProt Q66K74)
inactive: [1] 0.029 | [2] 0.011 | [3] 0.021 | [4] 0.019 | [5] 0.018

From the supplement of paper PMC10849652
